Measured values reported in the supplement of paper PMC10849652.
Some of the results follow.

Amino acid sequences for entries named in this document (tags omitted). A change or cut given only in a name is not applied to a line headed by its entry.
UniProt Q5EBM0: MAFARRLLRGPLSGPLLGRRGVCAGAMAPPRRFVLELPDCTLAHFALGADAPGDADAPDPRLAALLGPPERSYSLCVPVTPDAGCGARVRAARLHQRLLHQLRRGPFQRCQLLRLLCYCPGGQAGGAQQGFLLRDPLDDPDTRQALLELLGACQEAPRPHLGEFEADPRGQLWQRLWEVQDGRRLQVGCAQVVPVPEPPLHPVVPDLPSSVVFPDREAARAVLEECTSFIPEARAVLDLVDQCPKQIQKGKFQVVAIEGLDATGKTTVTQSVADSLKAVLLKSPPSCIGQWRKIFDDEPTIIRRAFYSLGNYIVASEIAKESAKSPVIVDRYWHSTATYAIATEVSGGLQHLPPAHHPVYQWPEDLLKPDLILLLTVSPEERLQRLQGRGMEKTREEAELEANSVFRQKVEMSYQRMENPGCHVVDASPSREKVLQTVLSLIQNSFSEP
UniProt O75122: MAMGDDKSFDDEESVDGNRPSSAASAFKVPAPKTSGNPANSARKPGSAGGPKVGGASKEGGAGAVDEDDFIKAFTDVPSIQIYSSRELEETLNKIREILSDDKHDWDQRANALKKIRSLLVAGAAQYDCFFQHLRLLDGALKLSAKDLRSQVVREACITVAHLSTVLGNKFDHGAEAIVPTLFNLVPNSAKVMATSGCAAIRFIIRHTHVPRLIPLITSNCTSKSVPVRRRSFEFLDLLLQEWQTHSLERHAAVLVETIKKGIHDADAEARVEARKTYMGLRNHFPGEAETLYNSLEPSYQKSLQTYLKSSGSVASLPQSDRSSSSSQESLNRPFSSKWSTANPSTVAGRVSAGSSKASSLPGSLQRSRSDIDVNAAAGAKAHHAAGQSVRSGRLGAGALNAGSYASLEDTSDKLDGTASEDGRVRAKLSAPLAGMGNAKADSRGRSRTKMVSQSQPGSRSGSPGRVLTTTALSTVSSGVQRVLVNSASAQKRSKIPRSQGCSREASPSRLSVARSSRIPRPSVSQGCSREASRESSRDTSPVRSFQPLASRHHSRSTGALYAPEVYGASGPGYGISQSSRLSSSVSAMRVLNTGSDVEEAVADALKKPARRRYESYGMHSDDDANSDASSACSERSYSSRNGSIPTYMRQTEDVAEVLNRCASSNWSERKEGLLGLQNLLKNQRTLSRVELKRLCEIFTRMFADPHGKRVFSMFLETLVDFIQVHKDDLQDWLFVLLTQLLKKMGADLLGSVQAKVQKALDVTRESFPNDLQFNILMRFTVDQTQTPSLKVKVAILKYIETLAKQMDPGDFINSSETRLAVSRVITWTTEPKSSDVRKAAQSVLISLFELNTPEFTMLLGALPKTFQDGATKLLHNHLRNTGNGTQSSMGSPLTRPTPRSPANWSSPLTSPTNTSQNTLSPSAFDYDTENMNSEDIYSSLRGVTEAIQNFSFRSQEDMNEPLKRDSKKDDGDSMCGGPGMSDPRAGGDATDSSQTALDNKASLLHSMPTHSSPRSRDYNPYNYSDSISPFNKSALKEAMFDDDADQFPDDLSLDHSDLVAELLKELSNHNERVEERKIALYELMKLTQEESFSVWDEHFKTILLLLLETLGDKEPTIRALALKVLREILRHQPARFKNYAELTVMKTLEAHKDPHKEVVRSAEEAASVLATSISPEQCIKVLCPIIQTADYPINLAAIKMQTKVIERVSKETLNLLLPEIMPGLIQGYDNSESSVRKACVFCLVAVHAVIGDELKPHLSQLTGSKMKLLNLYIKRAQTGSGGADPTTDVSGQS
UniProt Q8N2M8: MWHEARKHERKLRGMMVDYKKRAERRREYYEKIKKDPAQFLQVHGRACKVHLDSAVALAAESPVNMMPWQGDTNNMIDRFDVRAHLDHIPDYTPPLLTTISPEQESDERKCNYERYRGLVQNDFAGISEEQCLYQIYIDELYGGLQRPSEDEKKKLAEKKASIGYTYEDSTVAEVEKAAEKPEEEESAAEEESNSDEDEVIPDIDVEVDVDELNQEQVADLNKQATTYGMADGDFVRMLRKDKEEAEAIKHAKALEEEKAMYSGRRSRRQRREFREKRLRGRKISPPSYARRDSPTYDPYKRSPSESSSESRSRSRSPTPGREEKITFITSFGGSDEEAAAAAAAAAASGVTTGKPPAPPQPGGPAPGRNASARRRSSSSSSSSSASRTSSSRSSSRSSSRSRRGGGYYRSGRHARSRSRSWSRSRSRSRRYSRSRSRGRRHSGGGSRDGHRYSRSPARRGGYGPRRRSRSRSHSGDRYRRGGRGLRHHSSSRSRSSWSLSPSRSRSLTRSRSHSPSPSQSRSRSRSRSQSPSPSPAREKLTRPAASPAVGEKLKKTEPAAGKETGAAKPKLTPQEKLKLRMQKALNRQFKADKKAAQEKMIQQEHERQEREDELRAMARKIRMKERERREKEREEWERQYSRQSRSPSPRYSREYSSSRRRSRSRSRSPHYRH
UniProt P33552, whole entry, looked up: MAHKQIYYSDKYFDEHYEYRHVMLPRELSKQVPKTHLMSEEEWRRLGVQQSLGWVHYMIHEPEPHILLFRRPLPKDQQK
UniProt P38432, whole entry, looked up: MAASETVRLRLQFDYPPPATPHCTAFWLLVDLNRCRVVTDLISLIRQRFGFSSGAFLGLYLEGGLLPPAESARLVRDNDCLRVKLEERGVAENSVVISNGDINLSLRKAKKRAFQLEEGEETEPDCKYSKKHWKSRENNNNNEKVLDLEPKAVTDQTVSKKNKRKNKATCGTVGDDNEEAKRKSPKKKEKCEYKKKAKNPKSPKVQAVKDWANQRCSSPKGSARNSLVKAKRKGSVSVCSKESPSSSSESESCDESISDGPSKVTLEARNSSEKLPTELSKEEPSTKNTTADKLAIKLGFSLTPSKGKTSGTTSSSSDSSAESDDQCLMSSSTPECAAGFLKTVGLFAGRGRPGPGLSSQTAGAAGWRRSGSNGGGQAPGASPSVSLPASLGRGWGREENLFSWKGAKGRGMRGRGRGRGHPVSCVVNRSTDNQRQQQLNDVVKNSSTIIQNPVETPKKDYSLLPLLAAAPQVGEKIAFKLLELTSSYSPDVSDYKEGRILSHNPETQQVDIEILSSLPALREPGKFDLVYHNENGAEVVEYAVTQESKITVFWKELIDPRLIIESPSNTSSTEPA
UniProt Q8IZR5: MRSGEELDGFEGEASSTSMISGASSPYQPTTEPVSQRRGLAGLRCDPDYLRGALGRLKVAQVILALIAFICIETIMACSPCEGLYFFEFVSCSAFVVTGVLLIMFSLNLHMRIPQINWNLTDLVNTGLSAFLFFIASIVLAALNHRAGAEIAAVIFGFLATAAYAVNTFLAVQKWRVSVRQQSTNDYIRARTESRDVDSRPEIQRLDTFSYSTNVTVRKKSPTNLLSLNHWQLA
UniProt Q9UFF9, whole entry, looked up: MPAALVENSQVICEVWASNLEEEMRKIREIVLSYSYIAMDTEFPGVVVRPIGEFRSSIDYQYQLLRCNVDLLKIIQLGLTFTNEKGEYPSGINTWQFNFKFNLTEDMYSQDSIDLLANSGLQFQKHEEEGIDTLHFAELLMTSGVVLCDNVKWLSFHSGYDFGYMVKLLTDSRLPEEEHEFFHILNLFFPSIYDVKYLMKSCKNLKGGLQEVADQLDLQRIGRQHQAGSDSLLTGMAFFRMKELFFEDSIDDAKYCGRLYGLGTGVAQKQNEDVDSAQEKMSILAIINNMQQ
UniProt Q9NWW5: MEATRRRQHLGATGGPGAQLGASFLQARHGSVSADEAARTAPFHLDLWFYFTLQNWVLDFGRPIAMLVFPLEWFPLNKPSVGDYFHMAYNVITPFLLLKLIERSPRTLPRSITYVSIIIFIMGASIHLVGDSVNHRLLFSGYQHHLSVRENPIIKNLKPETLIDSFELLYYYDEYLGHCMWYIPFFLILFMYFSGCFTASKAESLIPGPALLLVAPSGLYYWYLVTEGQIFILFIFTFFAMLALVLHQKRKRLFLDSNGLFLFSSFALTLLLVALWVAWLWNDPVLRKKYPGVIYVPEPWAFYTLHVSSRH
UniProt O94985: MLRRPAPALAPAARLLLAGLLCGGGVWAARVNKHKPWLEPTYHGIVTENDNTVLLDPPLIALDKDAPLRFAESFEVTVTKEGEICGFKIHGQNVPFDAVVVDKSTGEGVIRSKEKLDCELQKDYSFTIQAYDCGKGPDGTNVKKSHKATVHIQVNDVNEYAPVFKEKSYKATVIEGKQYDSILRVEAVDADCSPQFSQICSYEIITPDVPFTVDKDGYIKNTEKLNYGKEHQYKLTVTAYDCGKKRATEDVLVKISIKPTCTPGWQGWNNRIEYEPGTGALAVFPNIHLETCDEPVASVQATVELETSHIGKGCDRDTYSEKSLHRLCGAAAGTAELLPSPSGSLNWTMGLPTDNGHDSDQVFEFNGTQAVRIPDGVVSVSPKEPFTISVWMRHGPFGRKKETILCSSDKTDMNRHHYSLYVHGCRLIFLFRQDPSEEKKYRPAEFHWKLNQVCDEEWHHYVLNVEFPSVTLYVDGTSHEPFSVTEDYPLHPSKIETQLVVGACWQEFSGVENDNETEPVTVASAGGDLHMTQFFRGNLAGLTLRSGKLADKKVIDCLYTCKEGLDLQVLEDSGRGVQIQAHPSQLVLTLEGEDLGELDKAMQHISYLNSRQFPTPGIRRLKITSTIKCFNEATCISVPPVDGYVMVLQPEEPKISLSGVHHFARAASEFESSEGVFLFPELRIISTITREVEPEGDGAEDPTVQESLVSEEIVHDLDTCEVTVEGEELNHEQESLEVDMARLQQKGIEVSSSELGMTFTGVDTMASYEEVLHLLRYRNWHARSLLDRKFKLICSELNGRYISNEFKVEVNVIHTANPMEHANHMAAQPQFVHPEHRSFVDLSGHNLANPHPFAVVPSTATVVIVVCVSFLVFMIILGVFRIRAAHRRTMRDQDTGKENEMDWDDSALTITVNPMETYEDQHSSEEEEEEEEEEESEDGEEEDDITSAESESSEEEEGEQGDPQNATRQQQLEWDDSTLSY
UniProt Q9NPF2: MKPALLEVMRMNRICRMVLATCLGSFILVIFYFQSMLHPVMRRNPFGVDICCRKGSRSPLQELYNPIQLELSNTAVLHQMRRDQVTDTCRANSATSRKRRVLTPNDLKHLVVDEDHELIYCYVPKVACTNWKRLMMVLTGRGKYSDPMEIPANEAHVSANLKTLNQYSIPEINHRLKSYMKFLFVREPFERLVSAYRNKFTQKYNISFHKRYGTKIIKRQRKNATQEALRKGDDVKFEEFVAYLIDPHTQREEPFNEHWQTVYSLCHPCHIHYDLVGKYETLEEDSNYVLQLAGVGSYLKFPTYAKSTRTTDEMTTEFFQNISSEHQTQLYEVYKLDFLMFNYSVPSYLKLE

How the values were obtained:
Experiment in all cases: log2 fold change, soluble protein after heating vs DMSO (PISA); higher = thermal stabilisation; K562 cells, 10 uM, 30 min; active = over 0.2 and 3.5 SD of the protein, either way, in both replicates (recomputed)
bafetinib = compound: Cc1ccc(NC(=O)c2ccc(CN3CC[C@H](N(C)C)C3)c(C(F)(F)F)c2)cc1Nc1nccc(-c2cncnc2)n1 [bafetinib]
Summary of the method: (§1)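 K562 cells at 2×10^6 cells/mL were treated with 10 μM compound for 30 min. Aliquots were heated for 3 min across 48°C-58°C, pooled, and extracted in PBS with 0.5% NP-40 at 4°C; soluble protein was the supernatant after 21,000xg for 90 min. Soluble protein was quantified by TMTpro 16plex LC-MS/MS with channel sums equalised, and reported as log2 fold change in thermal stability against DMSO controls, with values from duplicates.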

[1] = compound: Cc1cccc(CC(=O)N2CCc3c2ccc(-c2cn(C)c4ncnc(N)c24)c3F)n1
Summary of the method: as §1

nilotinib = compound: Cc1cn(-c2cc(NC(=O)c3ccc(C)c(Nc4nccc(-c5cccnc5)n4)c3)cc(C(F)(F)F)c2)cn1 [nilotinib]
Summary of the method: as §1

[2] = compound: Cc1nc(Nc2n[nH]c3c2CN(C(=O)N[C@H](CN(C)C)c2ccccc2)C3(C)C)c2sccc2n1
Summary of the method: as §1

dasatinib = compound: Cc1nc(Nc2ncc(C(=O)Nc3c(C)cccc3Cl)s2)cc(N2CCN(CCO)CC2)n1 [dasatinib]
Summary of the method: as §1

[3] = compound: Cc1ncc(-c2ccnc(Nc3ccc(S(C)(=O)=O)cc3)n2)n1C(C)C
Summary of the method: as §1

[4] = compound: Cn1cc(-c2ccc3c(c2)CCN3C(=O)Cc2cccc(C(F)(F)F)c2)c2c(N)ncnc21
Summary of the method: as §1

tipifarnib = compound: Cn1cncc1[C@@](N)(c1ccc(Cl)cc1)c1ccc2c(c1)c(-c1cccc(Cl)c1)cc(=O)n2C [tipifarnib]
Summary of the method: as §1

mubritinib = compound: FC(F)(F)c1ccc(/C=C/c2nc(COc3ccc(CCCCn4ccnn4)cc3)co2)cc1 [mubritinib]
Summary of the method: as §1

[5] = compound: NC(=O)Nc1cc(-c2cccc(F)c2)sc1C(=O)N[C@H]1CCCNC1
Summary of the method: as §1

[6] = compound: NC(=O)c1cnc(N[C@@H]2CCCC[C@@H]2N)nc1Nc1cccc(-n2nccn2)c1
Summary of the method: as §1

[7] = compound: NC1(c2ccc(-c3nc4ccn5c(=O)[nH]nc5c4cc3-c3ccccc3)cc2)CCC1
Summary of the method: as §1

[8] = compound: NCC(=O)Nc1ccc(-n2nc(C(F)(F)F)cc2-c2ccc3c(ccc4ccccc43)c2)cc1
Summary of the method: as §1

entinostat = compound: Nc1ccccc1NC(=O)c1ccc(CNC(=O)OCc2cccnc2)cc1 [entinostat]
Summary of the method: as §1

vorinostat = compound: O=C(CCCCCCC(=O)Nc1ccccc1)NO [vorinostat]
Summary of the method: as §1

citarinostat = compound: O=C(CCCCCCNC(=O)c1cnc(N(c2ccccc2)c2ccccc2Cl)nc1)NO [citarinostat]
Summary of the method: as §1

silmitasertib = compound: O=C(O)c1ccc2c(c1)nc(Nc1cccc(Cl)c1)c1ccncc12 [silmitasertib]
Summary of the method: as §1

[9] = compound: O=C1NC(=O)C(c2cnc3ccccn23)=C1c1cn2c3c(cc(F)cc13)CN(C(=O)N1CCCCC1)CC2
Summary of the method: as §1

[10] = compound: c1cc(OCCN2CCCCC2)cc(-c2n[nH]c3ccc(-c4nnc[nH]4)cc23)c1
Summary of the method: as §1

[11] = compound: Cn1cc(-c2ccc3nnc(C(F)(F)c4ccc5ncccc5c4)n3n2)cn1
Summary of the method: as §1

Measured: log2 fold change

CMPK2 (UniProt Q5EBM0)
inactive: bafetinib 0.015 | [1] 0.021 | nilotinib -0.004 | [2] -0.018 | dasatinib -0.076 | [3] 0.027 | [4] -0.021 | tipifarnib -0.016 | mubritinib 0.014 | [5] 0.002 | [6] -0.076 | [7] -0.106 | [8] -0.043 | entinostat -0.024 | vorinostat -0.003 | citarinostat -0.02 | silmitasertib -0.021 | [9] -0.04 | [10] -0.025

CLASP2 (UniProt O75122)
inactive: bafetinib -0.098 | nilotinib 0.014 | [2] -0.278 | [3] -0.231 | [4] -0.155 | [11] -0.344 | tipifarnib 0.045 | mubritinib 0.027 | [6] -0.049 | [7] 0.046 | citarinostat 0.143 | silmitasertib 0.083 | [10] 0.08

CLASRP (UniProt Q8N2M8)
inactive: bafetinib 0.035 | [1] -0.042 | nilotinib 0.093 | [2] -0.245 | [3] -0.171 | [4] -0.038 | [5] -0.024 | [6] -0.116 | entinostat -0.093 | vorinostat 0.097 | citarinostat 0.062 | [9] 0.115 | [10] 0.116

CKS2 (UniProt P33552)
inactive: bafetinib -0.021 | [1] 0.048 | nilotinib -0.008 | [2] -0.188 | dasatinib 0.096 | [3] -0.222 | tipifarnib -0.047 | mubritinib 0.325 | [6] -0.021 | [7] -0.039 | vorinostat 0.28 | citarinostat -0.092 | silmitasertib 0.065 | [10] -0.071

COIL (UniProt P38432)
inactive: bafetinib 0.378 | nilotinib -0.127 | [2] -0.165 | dasatinib -0.019 | [3] -0.124 | [11] 0.169 | tipifarnib 0.134 | [5] 0.15 | [6] -0.056 | entinostat -0.003 | citarinostat 0.062 | [9] -0.157 | [10] -0.086

CMTM4 (UniProt Q8IZR5)
inactive: bafetinib -0.125 | nilotinib 0.194 | [2] -0.129 | [3] -0.117 | mubritinib 0.101 | [5] -0.194 | [6] 0.2 | [7] -0.049 | [8] -0.1 | entinostat -0.057 | citarinostat 0.124 | silmitasertib 0.023 | [9] -0.168 | [10] -0.214

CNOT8 (UniProt Q9UFF9)
inactive: bafetinib 0.019 | nilotinib -0.002 | [2] -0.012 | dasatinib -0.182 | [3] -0.05 | [4] -0.045 | [11] 0.015 | tipifarnib 0.015 | mubritinib 0.106 | [5] 0.07 | [7] -0.257 | [8] -0.216 | entinostat 0.032 | citarinostat -0.015 | silmitasertib -0.069 | [9] 0.049 | [10] -0.009

CLN6 (UniProt Q9NWW5)
inactive: bafetinib 0.045 | nilotinib 0 | [2] 0.037 | [3] -0.055 | [4] -0.367 | [11] 0.047 | tipifarnib -0.053 | mubritinib 0.013 | [5] 0.077 | [6] -0.229 | [7] 0.005 | [8] 0.34 | entinostat -0.164 | citarinostat 0.03 | silmitasertib 0.01 | [9] 0.026 | [10] -0.052

CNOT11 (UniProt Q9UKZ1)
inactive: bafetinib -0.048 | nilotinib -0.094 | [2] -0.029 | dasatinib 0.07 | [3] 0.052 | [4] -0.065 | [11] -0.029 | mubritinib -0.066 | [5] 0.104 | [6] -0.082 | [7] -0.104 | [8] -0.052 | entinostat 0.06 | citarinostat 0.01 | silmitasertib 0.047 | [9] 0.107 | [10] -0.109

CLSTN1 (UniProt O94985)
inactive: bafetinib -0.159 | [1] -0.182 | dasatinib 0.127 | [4] 0.024 | [11] 0.034 | tipifarnib 0.103 | mubritinib 0.023 | [5] -0.198 | [6] -0.34 | [7] -0.035 | entinostat 0.129 | vorinostat -0.093 | citarinostat -0.31 | silmitasertib -0.013 | [10] -0.054

CHURC1-FNTB (UniProt B4DL54)
inactive: bafetinib -0.032 | [1] -0.158 | [11] 0.003 | tipifarnib 0.031 | mubritinib -0.079 | [5] -0.044 | [6] -0.002 | [7] -0.03 | [8] 0.159 | entinostat -0.016 | vorinostat -0.101 | citarinostat 0.073 | silmitasertib 0.109 | [9] -0.098 | [10] -0.07

CHST11 (UniProt Q9NPF2)
inactive: bafetinib -0.01 | [1] -0.117 | nilotinib 0.049 | [2] -0.026 | [3] 0.008 | [4] 0.039 | [11] -0.249 | tipifarnib -0.012 | mubritinib -0.064 | [5] -0.045 | [6] 0.068 | [7] -0.181 | [8] 0.139 | entinostat -0.027 | vorinostat 0.001 | citarinostat 0.276 | silmitasertib -0.044 | [9] 0.013 | [10] 0.054
